Data source: PubChem BioAssay AID1259254 (NCATS, 2017)
Purpose: 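Genome-wide screen for genes that prevent DNA re-replication in cancer cells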 (primary screen). Cell system: human HCT116 colorectal cancer cells. Reagent: single siRNA against human genes. Timing: 3 days. Detection: 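Nuclei stained with Hoechst and imaged; cell-cycle phase assigned by DNA content; G2 share scaled per plate, non-targeting siRNA 0%, GMNN siRNA 100%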. Scale: G2 robust z-score: higher = more G2 cells, more excess DNA replication. Call rule: 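Active siRNAs have a G2 robust z of 5 or more median absolute deviations over the median, which in these data means about 38% or higher of GMNN control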.
Here is a random part of about 59,000 reagents tested. Over the whole deposit, about 1,550 (2.6%) were called active. 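G2 share is only a proxy for re-replication; each gene was hit by three separate siRNAs, and active genes were retested.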 A number with no mark means an inactive call. Reagents against one gene are numbered here. Not all columns of the deposit are shown. No sequences are given here. Not given: the amount of reagent.

Gene | reagent no. | G2 robust z-score
EIF2AK1 | 1 | 0.56
EIF2AK1 | 2 | -0.122
EIF2AK1 | 3 | 0.0289
C19orf12 | 1 | 1.93
C19orf12 | 2 | 0.883
C19orf12 | 3 | -0.0516
PNN | 1 | 5.44 (active)
PNN | 2 | -0.275
PNN | 3 | 3.03
C2CD4A | 1 | -0.368
C2CD4A | 2 | 0.0689
C2CD4A | 3 | -0.793
PGAP3 | 1 | 0.972
PGAP3 | 2 | -0.493
PGAP3 | 3 | 0.393
JPH1 | 1 | -1.07
JPH1 | 2 | 1.78
JPH1 | 3 | 0.29
OSER1 | 1 | 2.26
OSER1 | 2 | 0.597
OSER1 | 3 | 1.31
SOCS3 | 1 | 5.11 (active)
SOCS3 | 2 | 0.389
SOCS3 | 3 | -1.05
FBXO48 | 1 | 0.353
FBXO48 | 2 | 0.0726
FBXO48 | 3 | 1.99
CELSR1 | 1 | 2.73
CELSR1 | 2 | 1.23
CELSR1 | 3 | 2.14
CAMK1D | 1 | 2.88
CAMK1D | 2 | -1.58
CAMK1D | 3 | -0.218
BARHL2 | 1 | -0.379
BARHL2 | 2 | -0.625
BARHL2 | 3 | 1.34
PLAGL1 | 1 | 0.479
PLAGL1 | 2 | 1.85
PLAGL1 | 3 | -0.0278
ZNF200 | 1 | -0.561
ZNF200 | 2 | 1.88
ZNF200 | 3 | 2.25
S100B | 1 | 0.323
S100B | 2 | 0.477
S100B | 3 | 0.138
ZBTB42 | 1 | 0.345
ZBTB42 | 2 | 1.77
ZBTB42 | 3 | -0.961
PPRC1 | 1 | 0.554
PPRC1 | 2 | 0.145
PPRC1 | 3 | -0.25
LIPT1 | 1 | 2.56
LIPT1 | 2 | 5.35 (active)
LIPT1 | 3 | -0.113
CEPT1 | 1 | 1.13
CEPT1 | 2 | 0.969
CEPT1 | 3 | -1.23
CNTN1 | 1 | 0.926
CNTN1 | 2 | 0.347
CNTN1 | 3 | -0.302
FMC1 | 1 | 2.67
FMC1 | 2 | -0.372
FMC1 | 3 | -0.081
OR1S2 | 1 | 1.51
OR1S2 | 2 | 1.56
OR1S2 | 3 | -0.0474
SAGE1 | 1 | -0.801
SAGE1 | 2 | 0.0651
SAGE1 | 3 | 0.444
